Measured values as given in article PMC7615741.
These are yes or no findings as the source states them, for the method shown. Some results given as binding are weak or reduced against the parent protein; the word gives no strength. Where a sequence is shown, tags or fusion partners need not be part of it.

Target: T1, AtEH1FL-GFP (A. thaliana) (UniProt Q9LM78)
T1 sequence: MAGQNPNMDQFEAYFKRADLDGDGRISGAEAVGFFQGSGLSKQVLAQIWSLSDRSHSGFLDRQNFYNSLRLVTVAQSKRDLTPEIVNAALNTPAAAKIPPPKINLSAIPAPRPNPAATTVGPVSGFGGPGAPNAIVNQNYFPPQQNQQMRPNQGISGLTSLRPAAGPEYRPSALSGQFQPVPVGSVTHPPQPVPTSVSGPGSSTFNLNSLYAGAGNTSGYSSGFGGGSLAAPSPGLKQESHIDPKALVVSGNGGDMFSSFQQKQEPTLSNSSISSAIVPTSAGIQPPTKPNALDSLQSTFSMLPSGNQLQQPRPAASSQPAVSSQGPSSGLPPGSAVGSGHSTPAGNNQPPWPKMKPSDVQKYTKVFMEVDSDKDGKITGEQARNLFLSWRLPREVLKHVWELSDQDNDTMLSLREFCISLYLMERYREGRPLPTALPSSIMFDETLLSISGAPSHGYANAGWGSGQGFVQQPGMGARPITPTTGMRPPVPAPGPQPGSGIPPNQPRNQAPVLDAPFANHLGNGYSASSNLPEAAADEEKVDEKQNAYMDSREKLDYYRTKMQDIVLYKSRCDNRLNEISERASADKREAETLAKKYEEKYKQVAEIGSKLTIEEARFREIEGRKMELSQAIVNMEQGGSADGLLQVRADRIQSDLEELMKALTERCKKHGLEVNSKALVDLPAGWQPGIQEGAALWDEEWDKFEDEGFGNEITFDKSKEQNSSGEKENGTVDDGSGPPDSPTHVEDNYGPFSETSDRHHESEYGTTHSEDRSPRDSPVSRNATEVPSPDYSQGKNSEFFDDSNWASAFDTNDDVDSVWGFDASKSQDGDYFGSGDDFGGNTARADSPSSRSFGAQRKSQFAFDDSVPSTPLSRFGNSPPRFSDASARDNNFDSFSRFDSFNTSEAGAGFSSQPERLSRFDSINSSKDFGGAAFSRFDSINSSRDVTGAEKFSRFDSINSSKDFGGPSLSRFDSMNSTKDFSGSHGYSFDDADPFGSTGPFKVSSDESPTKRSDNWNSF
Assay: partitioning assay (confocal microscopy of condensates in cells); scaffold AtEH1-GFP (FL or ΔIDR3) co-expressed with client-mScarlet in N. benthamiana epidermal cells; partitioning coefficient at AtEH1 positive foci (MitoTally script)

| Binder | binding |
| --- | --- |
| TOL9-mScarlet (protein, UniProt Q8L860 1-675) MVNAMVERATSEMLIGPDWAMNLEICDMLNSDPAQAKDVVKGIKKRIGSRNPKAQLLALTLLETIVKNCGDMVHMHVAEKGVIHEMVRIVKKKPDFHVKEKILVLIDTWQEAFGGPRARYPQYYAGYQELLRAGAVFPQRSERSAPVFTPPQTQPLTSYPPNLRNAGPGNDVPEPSAEPEFPTLSLSEIQNAKGIMDVLAEMLSALEPGNKEDLKQEVMVDLVEQCRTYKQRVVHLVNSTSDESLLCQGLALNDDLQRVLTNYEAIASGLPGTSSQIEKPKSETGKSLVDVDGPLIDTGDSSNQANGATSSSGNGVLNQLALPAPPVTNGSANSKIDLLSGDDLALVPVGPPQPASPVASDQNALALIDMFSDNTNNPSPATAPSGNPAQNIPLNPQGHQQPNSQAGEAGLQQSNGFAPQVGYSQFEQPSYGQGVSSPWSSQPAQQPVQPSYGAQDSTAFPPPPWEAQLQDYSPSAESGSPFSPGMHPTQTAFTHAQPVNNNNPYPQIPQTGPPVNNNSPYAQMPQTGQAVANISPYPQIPQNGVYMPNQPNQALGSGYQPQQQQQQQMMMAQYYAQQQQLQQQQQQQAYGNQMGGYGYGYNQQQQGSSPYLDQQMYGLSMRDQTSHQVASSSSTTSYLPPMKPKNKPEDKLFGDLVDISKFKPTKPTSGRAGTM | binds |
| AUXL1-mScarlet (protein, UniProt Q9SU08 1-904) MDDFTGLLARDFGLKPQGKSAPMASQSNSSAADFNTFASSYSFATAAGKKSDSLPVFDDPGRDGDDLLFKDVFSGPPPPKYGSSSGDSRSPSAPAFDYDAMFKEPKSKSASSMPVYDKPVYDDEDVFESIPELKIPSTSSQSARFENVFSSISSSPTKHRKQNSSPFDDLMGNNLGKKGADSDREEKGSSIFDDLIPGFGRTSSPPSKRTTSETTNQSEKAPYRTAETSSNVEEDPFVVLEESESTPREPSRTDPLDDIGKFNSRKTDHSSVHGGVFVDIDPLDNLGKPGPDMNSKGKSHLRPPGNISGSQSPPVESPGSYHSKKVSFEDFLEPHNMSTPPPTNSNGSFESSDDVWLTVSEIPLFTQPTSAPPPTRPPPPRPTRPIKKKVNEPSIPTSAYHSHVPSSGRASVNSPTASQMDELDDFSIGRNQTAANGYPDPSSGEDSDVFSTAAASAAAMKDAMDKAEAKFRHAKERREKENLKASRSREGDHTENYDSRERELREKQVRLDRERAEREAEMEKAQEREKEEREREQKRIERERERLVARQAVERATREARERAATEAHAKVQRAAVGKATDARERAERAAVQRAHAEARERAAAGARDKAAKAAAEAREKAEKAAAEAKERANAEAREKETRVRAERAAVERAAAEARGRAAAQAKAKQQQENTNDLDSFFSSISRPNSAPRQRTNPLDPFQDSWNKGGSFESSRESLRVPPGQPENLRKTSSVTNIVDDLSSIFGASASQSGGFQDVDGETEERRRARLERHQRTQERAAKALAEKNERDLQVQREQVEKDRIGVTLDVEIKRWGAGKEGNLRALLSTLQYVLWPECGWQPVSLTDLITAASVKKVYRKATLCIHPDKVQQKGANLQQKYIAEKVFDMLKEAWNKFNSEELF | binds |
| DRP2a-mScarlet (protein, UniProt Q9SE83 1-914) MEAIDELSQLSDSMKQAASLLADEDPDETSSSKRPATFLNVVALGNVGAGKSAVLNSLIGHPVLPTGENGATRAPIIIELSRESSLSSKAIILQIDNKSQQVSASALRHSLQDRLSKGASGKNRDEINLKLRTSTAPPLKLVDLPGLDQRIVDESMIAEYAQHNDAILLVIVPASQASEISSSRALKIAKEYDPESTRTIGIIGKIDQAAENSKALAAVQALLSNQGPPKTTDIPWVAVIGQSVSIASAQSGSGENSLETAWRAESESLKSILTGAPQSKLGRIALVDTLASQIRSRMKLRLPSVLSGLQGKSQIVQDELARLGEQLVNSAEGTRAIALELCREFEDKFLLHLAGGEGSGWKVVASFEGNFPNRIKQLPLDRHFDLNNVKRVVLEADGYQPYLISPEKGLRSLIKIVLELAKDPARLCVDEVHRVLVDIVSASANATPGLGRYPPFKREVVAIASAALDGFKNEAKKMVVALVDMERAFVPPQHFIRLVQRRMERQRREEELKGRSSKKGQDAEQSLLSRATSPQPDGPTAGGSLKSMKDKPSPQDKETPEVSGLKTAGPEGEITAGYLMKKSAKTNGWSRRWFVLNEKTGKLGYTKKQEERNFRGTITLEECTIEEIPEDEVEKSKSSKDKKANGPDSKGPGLVFKITCKVPYKTVLKAHNALVLKAESVVDKNEWINKLQKVIQARGGQVGSVSMRQSLSEGSLDKMVRKPIDPEEELRWMSQEVRGYVEAVLNSLAANVPKAVVLCQVEKAKEDMLNQLYSSISAIGNERIESLIQEDQNVKRRRERYQKQSSLLSKLTRQLSIHDNRAAAASSYSDNSGTESSPRASGGSSGDDWMNAFNSAANGPSDSLSKYGSGGHSRRYSDPAQNGDAASPGSGSNRRTTPNRLPPAPPPTGSAYRY | binds |
| Med15a (mScarlet tagged) (protein, UniProt F4I171 1-1335) MDNNNWRPSLPNGEPAMDTGDWRTQLPPDSRQKIVNKIMETLKKHLPFSGPEGINELRRIAARFEEKIFSGALNQTDYLRKISMKMLTMETKSQNAAGSSAAIPAANNGTSIDSIPTNQGQLLPGSLSTNQSQAPQPLLSQTMQNNTASGMTGSTALPSSMPPVSSITNNNTTSVVNQNANMQNVAGMLQDSSGQHGLSSNMFSGPQRQMLGRPHAMSSQQQQQPYLYQQQLQQQLLKQNFQSGNVPNPNSLLPSHIQQQQQNVLQPNQLHSSQQPGVPTSATQPSTVNSAPLQGLHTNQQSSPQLSSQQTTQSMLRQHQSSMLRQHPQSQQASGIHQQQSSLPQQSISPLQQQPTQLMRQQAANSSGIQQKQMMGQHVVGDMQQQHQQRLLNQQNNVMNIQQQQSQQQPLQQPQQQQKQQPPAQQQLMSQQNSLQATHQNPLGTQSNVAGLQQPQQQMLNSQVGNSSLQNNQHSVHMLSQPTVGLQRTHQAGHGLYSSQGQQSQNQPSQQQMMPQLQSHHQQLGLQQQPNLLQQDVQQRLQASGQVTGSLLPPQNVVDQQRQLYQSQRTLPEMPSSSLDSTAQTESANGGDWQEEVYQKIKSMKETYLPDLNEIYQRVAAKLQQDSMPQQQRSDQLEKLRQFKTMLERMIQFLSVSKSNIMPALKDKVAYYEKQIIGFLNMHRPRKPVQQGQLPQSQMQPMQQPQSQTVQDQSHDNQTNPQMQSMSMQGAGPRAQQSSMTNMQSNVLSSRPGVSAPQQNIPSSIPASSLESGQGNTLNNGQQVAMGSMQQNTSQLVNNSSASAQSGLSTLQSNVNQPQLSSSLLQHQHLKQQQDQQMQLKQQFQQRQMQQQQLQARQQQQQQQLQARQQAAQLQQMNDMNDLTSRQGMNVSRGMFQQHSMQGQRANYPLQQLKPGAVSSPQLLQGASPQMSQHLSPQVDQKNTVNKMGTPLQPANSPFVVPSPSSTPLAPSPMQVDSEKPGSSSLSMGNIARQQATGMQGVVQSLAIGTPGISASPLLQEFTSPDGNILNSSTITSGKPSATELPIERLIRAVKSISPQALSSAVSDIGSVVSMVDRIAGSAPGNGSRASVGEDLVAMTKCRLQARNFMTQEGMMATKKMKRHTTAMPLSVASLGGSVGDNYKQFAGSETSDLESTATSDGKKARTETEHALLEEIKEINQRLIDTVVEISDDEDAADPSEVAISSIGCEGTTVRFSFIAVSLSPALKAHLSSTQMSPIQPLRLLVPCSYPNGSPSLLDKLPVETSKENEDLSSKAMARFNILLRSLSQPMSLKDIAKTWDACARAVICEYAQQFGGGTFSSKYGTWEKYVAAS | binds |
| TOL6-mScarlet (protein, UniProt O80910 1-671) MASSSASATVAVDKATSDLLLGPDWTTNMEICDSVNSLHWQAKDVVKAVKKRLQHKSSRVQLLALTLLETLVKNCGDYLHHQVAEKNILGEMVKIVKKKADMQVRDKILVMVDSWQQAFGGPEGKYPQYYWAYDELRRSGVEFPRRSPDASPIITPPVSHPPLRQPQGGYGVPPAGYGVHQAGYGVPQAGYGIPQAGYGVPQAGYGIPQVGYGMPSGSSRRLDEAMATEVEGLSLSSIESMRDVMDLLGDMLQAVDPSDREAVKDEVIVDLVERCRSNQKKLMQMLTSTGDDELLGRGLDLNDSLQILLAKHDAIASGSPLPVQASGSPLSVQASKPADSSPKSSEAKDSSSIAGSSSPIPATVSTGKSPIDEEYEEEEDEFAQLARRHSKPPASVTTDPTSLESHNAASNALALALPDPPPPVNTTKEQDMIDLLSITLCTPSTPPAPSSQPSPPPPAGSDQNTHIYPQPQPRFDSYVAPWAQQQQPQQPQAQQGYSQHQQHQQQQGYSQPQHSQQQQGYSQLQQPQPQQGYSQSQPQAQVQMQPSTRPQNPYEYPPPPWASTSANAYYTPRANASASYTDTSALAGRSLQQSNSFPTRAGDPQATSTASNSGVSVGQKPFVPSYRLFEDLDVFGSADGKHNKPANSSNGSQNLSGSQTQQSMIGGRKMI | binds |
